Test results from patent publication US20120021995A1 (published 2012).
Positions count from the first letter of the chain named. Names may count otherwise. Results are given in words; binding and its absence hold for the method and conditions named. Some entries that bind do so weakly or less than the wild type. For part of these data: Tags and fused reporters may be left off the sequences shown.

Protein sequences, listed by entry. Tags and fused reporters are not part of them. Lines headed by an entry give the natural chain unless they say otherwise; changes in a name come on top.
UniProt O14763: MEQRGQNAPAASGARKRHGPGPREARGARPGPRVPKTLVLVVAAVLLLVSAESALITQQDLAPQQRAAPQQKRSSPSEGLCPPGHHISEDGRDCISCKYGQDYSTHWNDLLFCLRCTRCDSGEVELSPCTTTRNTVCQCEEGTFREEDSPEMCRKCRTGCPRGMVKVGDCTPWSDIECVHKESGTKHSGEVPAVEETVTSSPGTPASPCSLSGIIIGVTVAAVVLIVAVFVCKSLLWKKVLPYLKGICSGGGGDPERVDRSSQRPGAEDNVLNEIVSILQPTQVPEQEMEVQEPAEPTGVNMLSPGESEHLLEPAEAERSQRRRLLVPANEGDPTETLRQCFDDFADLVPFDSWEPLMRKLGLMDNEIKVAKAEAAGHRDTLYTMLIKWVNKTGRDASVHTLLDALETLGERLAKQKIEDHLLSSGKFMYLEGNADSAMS

T1: recombinant human TRAIL R1 (DR4)/Fc chimera (human) (UniProt O00220)
T1 sequence: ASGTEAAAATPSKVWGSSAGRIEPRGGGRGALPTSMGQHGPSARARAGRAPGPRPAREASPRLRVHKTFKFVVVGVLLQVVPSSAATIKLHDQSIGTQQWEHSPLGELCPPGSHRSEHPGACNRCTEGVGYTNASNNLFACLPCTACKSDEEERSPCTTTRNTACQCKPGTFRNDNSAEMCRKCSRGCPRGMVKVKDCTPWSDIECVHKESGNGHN

B1: 014-42.3B8 (designed binder)
chain: EPPTQKPKKIVNAKKDVVNTKMFEELKSRLDTLAQEVALLKEQQALQTVCLKGTKVHMKCFLAFTQTKTFHEASEDCISRGGTLSTPQTGSENDALYEYLRQSVGNEAEIWLGLNGWLEGVGWVDMTGARIAYKNWETEITAQPDGGEHWGWENCAVLSGAANGKWFDKRCRDQLPYICQFGIV
notes: ATRIMER; also called 14p42P3B8
B2: 71p88P1B3 (designed binder)
chain: B1 chain with V121S, E148V, H149Q, G151R
B3: 119p83P1H4 (designed binder)
chain: EPPTQKPKKIVNAKKDVVNTKMFEELKSRLDTLAQEVALLKEQQALQTVCLKGTKVHMKCFLAFTQTKTFHEASEDCISRGGTLSTPQTGSENDALYEYLRQSVGNEAEIWLGLNGWLEGVGWVDMTGARIAYKNWSKVRLEQPDGGWPFSNENCAVLSGAANGKWFDKRCRDQLPYICQFGIV
notes: ATRIMER from pANA19
B4: 119p94P1B5 (designed binder)
chain: B3 chain with S137A, K138R, V139H, R140I, L141N
notes: ATRIMER from pANA19
B5: 029-15.A7F (designed binder)
chain: ALQTVCLKGTKVHMKCFLAFTQTKTFHEASEDCISRGGTLSTPQTGSENDALYEYLRQSVGNEAEIWLGLNQLVVQMGWVDMTGARIAYKNWETEITAQPDGGWMTVGENCAVLSGAANGKWFDKRCRDQLPYICQFGIV
B6: 029-15.B11A (designed binder)
chain: ALQTVCLKGTKVHMKCFLAFTQTKTFHEASEDCISRGGTLSTPQTGSENDALYEYLRQSVGNEAEIWLGLNVAIRRSVWVDMTGARIAYKNWETEITAQPDGGERAHSENCAVLSGAANGKWFDKRCRDQLPYICQFGIV
B7: 029-15.B2B (designed binder)
chain: B6 chain with V72W, A73V, I74M, S77P, V78L, E104S, R105M, A106G, H107W, S108R
B8: 029-15.A8E (designed binder)
chain: B5 chain with Q72W, L73R, V74S, V75M, Q76V, M77V, G78W, W104K, M105H, V107L
B9: 29p61P1E11 (designed binder)
chain: B1 chain with E148W, H149P, W150F, G151S, W152N
notes: ATRIMER; also called 029-61.1E11
B10: 014-42.3D10 (designed binder)
chain: B1 chain with W117Y, V121Y, E148A, H149T, W150I, G151A
notes: ATRIMER
B11: 014-42.3D11 (designed binder)
chain: B1 chain with V121A, E148W, G151R
notes: ATRIMER
B12: 71p88P1B4 (designed binder)
chain: B1 chain with V121Y, E148A, H149E, W150R, G151A
B13: 71p88P1G11 (designed binder)
chain: B1 chain with L118M, E119A, E148P, H149G, W150L, G151R
B14: 119p83P1H1 (designed binder)
chain: B3 chain with S137T, K138Q, V139R, R140H, L141S, E142G
notes: ATRIMER from pANA19
B15: 119p94P1B4 (designed binder)
chain: B3 chain with S137A, K138E, R140P, L141F, E142F
notes: ATRIMER from pANA19
B16: 119p94P1C1 (designed binder)
chain: B3 chain with S137A, K138I, V139S, R140D, L141E, E142R
notes: ATRIMER from pANA19
B17: 119p94P1D8 (designed binder)
chain: B3 chain with S137G, K138W, V139M, R140D, L141S, E142K
notes: ATRIMER from pANA19
B18: 119p94P1F4 (designed binder)
chain: B3 chain with S137A, K138A, R140T, L141M
notes: ATRIMER from pANA19
B19: 119p94P1G7 (designed binder)
chain: B3 chain with S137G, K138W, V139S, R140A, L141R, E142V
notes: ATRIMER from pANA19
B20: 119p83P1D9Q (designed binder)
chain: ALQTVCLKGTKVHMKCFLAFTQTKTFHEASEDCISRGGTLSTPQTGSENDALYEYLRQSVGNEAEIWLGLNGWLEGVGWVDMTGARIAYKNWEHPEPWHQPDGGWPFSNENCAVLSGAANGKWFDKRCRDQLPYICQFGIV
B21: 132p105P10B1 (peptide, not shown: small tags and cut ends)
chain (part 1 of 2): FYPSVCLTSCASIQR
chain (part 2 of 2): VVNTKMFEELKSRLDTLAQEVALLKEQQALQTVCLK
B22: 132p18P3A10 (peptide, not shown: small tags and cut ends)
chain (part 1 of 2): MHMTPPYLCRWGCAT
chain (part 2 of 2): B21 chain (part 2 of 2)
B23: 132p19P5D1 (peptide, not shown: small tags and cut ends)
chain (part 1 of 2): VVMNGPFLCRTPCLV
chain (part 2 of 2): B21 chain (part 2 of 2)
B24: 132p105P9A6 (peptide, not shown: small tags and cut ends)
chain (part 1 of 2): QGPTIMGPYLCTYGC
chain (part 2 of 2): B21 chain (part 2 of 2)
B25: 132p45P7G2 (peptide, not shown: small tags and cut ends)
chain (part 1 of 2): GGCLPYLTCRMGSVT
chain (part 2 of 2): B21 chain (part 2 of 2)
B26: 132p103P11E7-4 (peptide, not shown: small tags and cut ends)
chain (part 1 of 2): QMNCRPILTCKHRTL
chain (part 2 of 2): B21 chain (part 2 of 2)
B27: 132p103P11E7-1 (peptide, not shown: small tags and cut ends)
chain (part 1 of 2): QEGWTFSCMPYLTCR
chain (part 2 of 2): B21 chain (part 2 of 2)
B28: 132p104P9C10 (peptide, not shown: small tags and cut ends)
chain (part 1 of 2): WTASSKFCSRPFLTC
chain (part 2 of 2): B21 chain (part 2 of 2)
B29: 132p103P9E8 (peptide, not shown: small tags and cut ends)
chain: TKIDDNALVITQKARWRVVNTKMFEELKSRLDTLAQEVALLKEQQALQTVCLK

Molecular target: T1, recombinant human TRAIL R1 (DR4)/Fc chimera (human)
Assay: SPR (Biacore) after Alexa Fluor-488 conjugation

Binder | binding
B1 | binds
B2 | binds
B3 | binds
B4 | binds

Molecular target: recombinant human TRAIL R2 (DR5)/Fc chimera (human) (UniProt O14763)
Assay: phage ELISA on DR5/Fc

Binder | binding
B5 | binds
B6 | binds
B7 | binds
B8 | binds

Molecular target: T1, recombinant human TRAIL R1 (DR4)/Fc chimera (human)
Assay: phage ELISA on DR4/Fc

Binder | binding
B9 | binds
B1 | binds
B10 | binds
B11 | binds
B2 | binds
B12 | binds
B13 | binds
B14 | binds
B3 | binds
B15 | binds
B4 | binds
B16 | binds
B17 | binds
B18 | binds
B19 | binds
B20 | binds

Molecular target: recombinant human TRAIL R2 (DR5)/Fc chimera (human) (UniProt O14763)
Assay: panning of the peptide trimer phage library on DR5-Fc

Binder | binding
B21 | binds
B22 | binds
B23 | binds
B24 | binds
B25 | binds
B26 | binds
B27 | binds
B28 | binds
B29 | binds
